Source: the supplement of paper PMC10849652
Some of the results follow.

Sequences of proteins named here, by UniProt entry; tags and fusion partners are left off. A change or cut given only in a name is not applied to a line headed by its entry.
UniProt Q9UK45: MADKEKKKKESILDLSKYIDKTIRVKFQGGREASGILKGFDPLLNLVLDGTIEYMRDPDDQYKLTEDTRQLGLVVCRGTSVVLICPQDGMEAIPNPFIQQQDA
UniProt Q6PJG9: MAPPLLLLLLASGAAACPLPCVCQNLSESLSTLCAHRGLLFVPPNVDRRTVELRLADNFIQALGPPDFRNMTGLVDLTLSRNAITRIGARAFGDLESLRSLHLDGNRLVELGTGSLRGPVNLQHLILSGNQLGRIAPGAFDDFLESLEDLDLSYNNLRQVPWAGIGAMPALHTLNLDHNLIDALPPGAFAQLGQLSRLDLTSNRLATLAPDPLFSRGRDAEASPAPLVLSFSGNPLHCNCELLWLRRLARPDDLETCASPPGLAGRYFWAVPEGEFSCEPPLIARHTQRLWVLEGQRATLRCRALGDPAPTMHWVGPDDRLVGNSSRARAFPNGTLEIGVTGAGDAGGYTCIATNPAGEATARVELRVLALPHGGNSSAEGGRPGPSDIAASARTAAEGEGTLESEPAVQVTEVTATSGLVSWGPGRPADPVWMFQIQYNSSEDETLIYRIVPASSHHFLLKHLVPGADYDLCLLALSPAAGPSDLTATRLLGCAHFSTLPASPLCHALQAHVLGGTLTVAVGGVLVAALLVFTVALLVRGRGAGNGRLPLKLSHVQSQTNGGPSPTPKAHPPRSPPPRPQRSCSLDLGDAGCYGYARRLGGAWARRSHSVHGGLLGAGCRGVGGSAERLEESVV
UniProt P02545: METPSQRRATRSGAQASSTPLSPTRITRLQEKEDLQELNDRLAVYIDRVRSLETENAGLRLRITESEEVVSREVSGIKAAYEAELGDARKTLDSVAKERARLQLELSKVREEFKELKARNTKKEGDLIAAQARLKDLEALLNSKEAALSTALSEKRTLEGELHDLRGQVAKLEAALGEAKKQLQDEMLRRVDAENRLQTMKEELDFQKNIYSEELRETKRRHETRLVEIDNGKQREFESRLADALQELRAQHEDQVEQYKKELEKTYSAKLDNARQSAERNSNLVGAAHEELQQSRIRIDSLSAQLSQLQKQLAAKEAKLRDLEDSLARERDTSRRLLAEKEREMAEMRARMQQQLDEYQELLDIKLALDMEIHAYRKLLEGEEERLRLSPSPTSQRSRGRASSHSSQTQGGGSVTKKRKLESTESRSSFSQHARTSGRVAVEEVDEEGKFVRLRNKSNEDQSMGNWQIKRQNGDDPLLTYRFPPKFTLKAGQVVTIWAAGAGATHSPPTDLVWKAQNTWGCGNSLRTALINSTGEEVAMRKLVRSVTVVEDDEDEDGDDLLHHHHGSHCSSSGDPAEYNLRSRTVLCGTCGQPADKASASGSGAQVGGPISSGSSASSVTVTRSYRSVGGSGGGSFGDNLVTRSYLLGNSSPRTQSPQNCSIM
UniProt Q9Y4Z0: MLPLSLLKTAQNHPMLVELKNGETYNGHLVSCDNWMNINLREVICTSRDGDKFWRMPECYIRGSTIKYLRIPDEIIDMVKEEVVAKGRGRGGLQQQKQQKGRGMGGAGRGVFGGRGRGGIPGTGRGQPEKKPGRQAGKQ
UniProt Q08380: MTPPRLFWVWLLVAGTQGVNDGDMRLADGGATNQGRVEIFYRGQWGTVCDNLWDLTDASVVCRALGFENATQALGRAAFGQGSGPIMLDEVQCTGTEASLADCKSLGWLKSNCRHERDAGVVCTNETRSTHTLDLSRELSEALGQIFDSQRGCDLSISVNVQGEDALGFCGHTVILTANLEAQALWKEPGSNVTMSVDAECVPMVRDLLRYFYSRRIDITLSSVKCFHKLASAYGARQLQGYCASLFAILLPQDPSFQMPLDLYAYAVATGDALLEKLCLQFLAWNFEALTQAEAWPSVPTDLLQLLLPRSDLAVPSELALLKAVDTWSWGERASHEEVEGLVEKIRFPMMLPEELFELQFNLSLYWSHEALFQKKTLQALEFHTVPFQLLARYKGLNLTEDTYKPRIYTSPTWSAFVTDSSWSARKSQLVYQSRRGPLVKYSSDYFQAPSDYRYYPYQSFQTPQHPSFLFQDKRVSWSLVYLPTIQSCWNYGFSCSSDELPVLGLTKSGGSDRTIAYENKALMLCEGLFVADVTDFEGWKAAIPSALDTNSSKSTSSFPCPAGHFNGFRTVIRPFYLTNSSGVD
UniProt O95202: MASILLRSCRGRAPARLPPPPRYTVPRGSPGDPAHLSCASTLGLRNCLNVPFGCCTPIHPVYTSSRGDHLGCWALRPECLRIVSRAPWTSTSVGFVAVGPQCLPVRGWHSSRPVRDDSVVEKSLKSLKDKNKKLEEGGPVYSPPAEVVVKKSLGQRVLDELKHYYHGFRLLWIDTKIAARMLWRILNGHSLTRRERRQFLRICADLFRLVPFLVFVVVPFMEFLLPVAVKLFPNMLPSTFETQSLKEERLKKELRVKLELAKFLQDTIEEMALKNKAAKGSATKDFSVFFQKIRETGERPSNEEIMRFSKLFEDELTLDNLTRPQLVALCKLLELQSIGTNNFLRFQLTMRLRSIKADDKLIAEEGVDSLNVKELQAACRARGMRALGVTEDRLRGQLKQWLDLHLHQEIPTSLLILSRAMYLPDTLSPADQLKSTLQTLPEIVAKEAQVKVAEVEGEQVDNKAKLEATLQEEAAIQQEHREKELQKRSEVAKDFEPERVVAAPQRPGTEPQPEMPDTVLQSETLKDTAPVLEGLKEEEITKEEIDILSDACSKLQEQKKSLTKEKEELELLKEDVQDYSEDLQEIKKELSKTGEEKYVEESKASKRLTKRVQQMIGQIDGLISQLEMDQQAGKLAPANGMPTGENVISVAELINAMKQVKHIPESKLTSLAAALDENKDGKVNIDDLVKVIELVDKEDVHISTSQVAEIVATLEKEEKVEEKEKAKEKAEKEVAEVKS
UniProt Q8N448: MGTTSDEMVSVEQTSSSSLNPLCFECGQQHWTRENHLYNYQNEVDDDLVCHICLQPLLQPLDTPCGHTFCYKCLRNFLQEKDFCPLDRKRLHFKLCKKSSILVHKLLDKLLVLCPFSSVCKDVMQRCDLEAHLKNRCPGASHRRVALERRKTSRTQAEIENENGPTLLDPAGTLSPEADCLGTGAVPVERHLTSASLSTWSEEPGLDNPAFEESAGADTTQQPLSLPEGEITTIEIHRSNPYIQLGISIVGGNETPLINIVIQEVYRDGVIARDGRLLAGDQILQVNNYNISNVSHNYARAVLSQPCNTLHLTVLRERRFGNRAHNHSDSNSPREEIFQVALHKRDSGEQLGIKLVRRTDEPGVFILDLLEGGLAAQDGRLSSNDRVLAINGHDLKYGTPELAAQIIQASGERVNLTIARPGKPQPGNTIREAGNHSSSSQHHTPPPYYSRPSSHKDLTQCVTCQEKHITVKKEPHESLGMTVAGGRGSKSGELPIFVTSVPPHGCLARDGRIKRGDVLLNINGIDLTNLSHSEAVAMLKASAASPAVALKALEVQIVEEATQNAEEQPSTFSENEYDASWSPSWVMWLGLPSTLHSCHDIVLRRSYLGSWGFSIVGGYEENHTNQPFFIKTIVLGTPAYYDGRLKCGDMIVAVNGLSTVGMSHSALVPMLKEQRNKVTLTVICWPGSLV
UniProt Q7L5N7: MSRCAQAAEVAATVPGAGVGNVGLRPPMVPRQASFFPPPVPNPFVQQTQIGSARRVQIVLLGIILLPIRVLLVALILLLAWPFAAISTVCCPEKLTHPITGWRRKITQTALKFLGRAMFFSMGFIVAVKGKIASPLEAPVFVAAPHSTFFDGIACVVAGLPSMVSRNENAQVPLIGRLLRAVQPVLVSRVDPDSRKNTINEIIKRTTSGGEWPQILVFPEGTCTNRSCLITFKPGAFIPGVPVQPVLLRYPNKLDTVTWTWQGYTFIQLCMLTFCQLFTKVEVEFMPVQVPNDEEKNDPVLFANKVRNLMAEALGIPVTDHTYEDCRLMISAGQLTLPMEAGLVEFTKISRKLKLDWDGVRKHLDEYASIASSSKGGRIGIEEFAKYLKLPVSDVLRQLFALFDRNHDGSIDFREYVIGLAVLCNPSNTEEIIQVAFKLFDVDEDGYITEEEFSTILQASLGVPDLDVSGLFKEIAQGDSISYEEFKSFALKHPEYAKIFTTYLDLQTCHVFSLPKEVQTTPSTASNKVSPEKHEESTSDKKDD
UniProt Q96FQ7: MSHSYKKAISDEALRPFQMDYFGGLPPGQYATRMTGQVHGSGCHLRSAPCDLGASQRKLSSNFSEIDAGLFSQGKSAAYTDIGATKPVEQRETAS
UniProt Q6ZRR7: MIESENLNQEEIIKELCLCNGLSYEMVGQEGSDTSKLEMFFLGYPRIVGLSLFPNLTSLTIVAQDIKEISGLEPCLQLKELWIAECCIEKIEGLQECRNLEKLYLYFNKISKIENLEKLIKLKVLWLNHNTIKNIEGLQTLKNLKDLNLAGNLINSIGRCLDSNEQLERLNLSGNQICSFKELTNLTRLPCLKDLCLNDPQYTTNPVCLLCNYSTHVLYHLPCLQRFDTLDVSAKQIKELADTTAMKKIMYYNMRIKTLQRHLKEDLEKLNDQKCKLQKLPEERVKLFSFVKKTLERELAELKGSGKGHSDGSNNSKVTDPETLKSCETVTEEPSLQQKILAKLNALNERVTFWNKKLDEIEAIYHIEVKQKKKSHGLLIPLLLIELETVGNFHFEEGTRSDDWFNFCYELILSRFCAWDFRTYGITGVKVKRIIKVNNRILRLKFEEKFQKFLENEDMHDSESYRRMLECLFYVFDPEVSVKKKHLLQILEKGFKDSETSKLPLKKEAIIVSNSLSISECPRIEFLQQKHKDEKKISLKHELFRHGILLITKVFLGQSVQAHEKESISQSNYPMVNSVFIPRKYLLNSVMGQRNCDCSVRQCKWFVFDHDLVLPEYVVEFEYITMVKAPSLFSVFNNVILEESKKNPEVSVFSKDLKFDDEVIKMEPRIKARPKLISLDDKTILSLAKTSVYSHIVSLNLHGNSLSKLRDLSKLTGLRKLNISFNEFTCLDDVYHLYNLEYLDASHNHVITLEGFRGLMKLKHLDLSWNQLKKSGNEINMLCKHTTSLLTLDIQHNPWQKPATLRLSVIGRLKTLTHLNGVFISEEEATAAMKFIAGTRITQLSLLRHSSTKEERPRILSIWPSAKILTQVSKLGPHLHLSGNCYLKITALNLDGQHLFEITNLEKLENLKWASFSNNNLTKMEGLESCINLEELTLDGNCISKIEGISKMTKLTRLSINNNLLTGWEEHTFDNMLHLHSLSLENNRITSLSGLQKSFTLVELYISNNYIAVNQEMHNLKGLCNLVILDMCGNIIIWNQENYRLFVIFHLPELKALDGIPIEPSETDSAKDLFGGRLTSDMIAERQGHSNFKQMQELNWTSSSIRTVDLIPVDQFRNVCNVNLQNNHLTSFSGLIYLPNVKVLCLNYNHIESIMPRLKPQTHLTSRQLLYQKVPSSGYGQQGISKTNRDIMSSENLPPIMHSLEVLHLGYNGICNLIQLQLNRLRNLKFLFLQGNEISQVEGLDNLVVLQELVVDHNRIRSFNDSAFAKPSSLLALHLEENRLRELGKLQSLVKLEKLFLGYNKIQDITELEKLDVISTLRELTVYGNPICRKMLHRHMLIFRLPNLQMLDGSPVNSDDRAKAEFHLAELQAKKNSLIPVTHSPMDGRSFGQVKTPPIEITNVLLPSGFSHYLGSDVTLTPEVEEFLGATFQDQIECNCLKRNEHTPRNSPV
UniProt Q8NC56: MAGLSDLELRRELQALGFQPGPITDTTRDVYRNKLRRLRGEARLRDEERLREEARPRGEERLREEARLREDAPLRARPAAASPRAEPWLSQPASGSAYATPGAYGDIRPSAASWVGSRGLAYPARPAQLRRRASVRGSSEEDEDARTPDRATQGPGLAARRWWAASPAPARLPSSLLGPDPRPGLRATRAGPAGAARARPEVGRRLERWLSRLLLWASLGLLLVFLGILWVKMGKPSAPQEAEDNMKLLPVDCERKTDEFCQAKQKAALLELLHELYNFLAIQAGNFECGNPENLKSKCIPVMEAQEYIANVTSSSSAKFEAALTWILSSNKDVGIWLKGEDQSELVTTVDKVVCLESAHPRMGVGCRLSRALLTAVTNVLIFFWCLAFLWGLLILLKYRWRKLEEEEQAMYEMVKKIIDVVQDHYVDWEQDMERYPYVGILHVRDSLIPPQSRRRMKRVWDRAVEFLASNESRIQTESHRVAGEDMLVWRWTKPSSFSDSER

Tests used:
Experiment in all cases: log2 fold change, soluble protein after heating vs DMSO (PISA); higher = thermal stabilisation; K562 lysate, 10 uM; active = over 0.2 and 3.5 SD of the protein, either way, in both replicates (recomputed)
[1] = compound: NCC(=O)Nc1ccc(-n2nc(C(F)(F)F)cc2-c2ccc3c(ccc4ccccc43)c2)cc1
Outline: (§1)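 Dounce homogenisation of K562 pellets in PBS pH 7.4 with 1 mM MgCl2 produced a crude extract, used at 1 mg/mL protein. Exposure to 10 μM compound lasted 30 min, and aliquots were then heated for 3 min across 48°C-58°C, pooled and brought to 0.5% NP-40 at 4°C. The supernatant after 21,000xg for 90 min was quantified by TMTpro 16plex LC-MS/MS with channel sums equalised. Duplicate values are given as log-two fold change in thermal stability relative to solvent controls.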

vorinostat = compound: O=C(CCCCCCC(=O)Nc1ccccc1)NO [vorinostat]
Outline: as §1

silmitasertib = compound: O=C(O)c1ccc2c(c1)nc(Nc1cccc(Cl)c1)c1ccncc12 [silmitasertib]
Outline: as §1

[2] = compound: O=C1NC(=O)C(c2cnc3ccccn23)=C1c1cn2c3c(cc(F)cc13)CN(C(=O)N1CCCCC1)CC2
Outline: as §1

entospletinib = compound: c1cn2cc(-c3ccc4cn[nH]c4c3)nc(Nc3ccc(N4CCOCC4)cc3)c2n1 [entospletinib]
Outline: as §1

Measured: log2 fold change

LSM7 (UniProt Q9UK45)
inactive: [1] 0.019 | vorinostat 0.092 | silmitasertib 0 | [2] -0.019 | entospletinib 0.001

LRFN4 (UniProt Q6PJG9)
inactive: [1] 0.028 | vorinostat 0.056 | silmitasertib -0.06 | [2] -0.073 | entospletinib 0.017

LRRC8A (UniProt Q8IWT6)
inactive: [1] 0.024 | vorinostat 0.085 | silmitasertib -0.099 | [2] 0.072 | entospletinib 0.049

LMNA (UniProt P02545)
inactive: [1] 0.001 | vorinostat 0.063 | silmitasertib 0.005 | [2] -0.036 | entospletinib -0.019

LSM4 (UniProt Q9Y4Z0)
inactive: [1] 0.02 | vorinostat 0.128 | silmitasertib -0.013 | [2] 0.038 | entospletinib 0.016

LGALS3BP (UniProt Q08380)
inactive: [1] 0.153 | vorinostat 0.176 | silmitasertib -0.121 | [2] 0.113 | entospletinib -0.129

LETM1 (UniProt O95202)
inactive: [1] -0.041 | vorinostat 0.084 | silmitasertib -0.021 | [2] -0.006 | entospletinib 0.009

LNX2 (UniProt Q8N448)
inactive: [1] -0.26 | vorinostat 0.74 | silmitasertib 0.382 | entospletinib -0.036

LPCAT2 (UniProt Q7L5N7)
inactive: [1] 0.007 | [2] -0.121 | entospletinib -0.031

LRP1 (UniProt Q07954)
inactive: [1] 0.233 | [2] 0.296 | entospletinib -0.032

Random excerpt: 2 entries already listed, in no set order.
LMNA (UniProt P02545)
inactive: [1] 0.001 | vorinostat 0.063 | silmitasertib 0.005 | [2] -0.036 | entospletinib -0.019

LETM1 (UniProt O95202)
inactive: [1] -0.041 | vorinostat 0.084 | silmitasertib -0.021 | [2] -0.006 | entospletinib 0.009

Later entries:

LINC00526 (UniProt Q96FQ7)
inactive: [2] 0.084

LRRC9 (UniProt Q6ZRR7)
inactive: [1] 0.106 | [2] -0.034 | entospletinib 0.011

LEMD2 (UniProt Q8NC56)
inactive: vorinostat 0.006 | silmitasertib 0.264 | [2] -0.042 | entospletinib 0.082
